# According to patent US20160115200A1 (XIGEN INFLAMMATION LTD., priority 2013, published 2016):
# Square brackets hold non-standard residues; d marks the D form.
# Assay: general procedure: Fmoc solid-phase peptide synthesis; Fmoc-Rink amide-MBHA resin
# Conditions: whole synthesis, scale 0.7 mmol, acetate
substance,measurement,value
H-[dR]KKR[dR]QRR[dR]RP[dK]RP[dA]TLNL[dF]-NH2 (SMILES CC(C)C[C@H](NC(=O)[C@H](CC(N)=O)NC(=O)[C@H](CC(C)C)NC(=O)[C@@H](NC(=O)[C@@H](C)NC(=O)[C@@H]1CCCN1C(=O)[C@H](CCCNC(=N)N)NC(=O)[C@@H](CCCCN)NC(=O)[C@@H]1CCCN1C(=O)[C@H](CCCNC(=N)N)NC(=O)[C@@H](CCCNC(=N)N)NC(=O)[C@H](CCCNC(=N)N)NC(=O)[C@H](CCCNC(=N)N)NC(=O)[C@H](CCC(N)=O)NC(=O)[C@@H](CCCNC(=N)N)NC(=O)[C@H](CCCNC(=N)N)NC(=O)[C@H](CCCCN)NC(=O)[C@H](CCCCN)NC(=O)[C@H](N)CCCNC(=N)N)[C@@H](C)O)C(=O)N[C@H](Cc1ccccc1)C(N)=O),final purity (method not given),≧95%
